For two molecules, binding results are on record in patent US20240317862A1.

Positions count from the first letter of the chain named. No constants are given. Whether binding was seen depends on the method and setting. Binding calls can cover weak binding; strength is not graded here.

The target of assay [1] is Cynomolgus monkey B7-H3 protein (Sino Biological Inc. Beijing) (Cynomolgus monkey). Briefly: ELISA, plate coated with 0.1 µg/mL Cynomolgus monkey B7-H3, HRP-labeled antibody. In general terms: In an ELISA, binding on a coated surface is turned into a signal by an enzyme label.
Assay [2] has the same target. Briefly: ELISA, plate coated with 0.1 µg/mL Cynomolgus monkey B7-H3, HRP-labeled antibody, OD 450/620 nm.

B1: murine monoclonal antibody mAb152 (antibody, V domains shown)
VH: QVQLQQPGAELVRPGASVKLSCKASGYTFTAYWMNWVKQRPDQGLEWIGRIDPYDSETRYNQNFRDKARLTVDKSSSTAYMQLSSLTSEDSAVFYCARGVRIFDYWGQGTTLTVSS
VL: DIQMTQSPASLAASVGETVTITCRTSENIDYTLAWYQQKPGKSPQLLIYNANTLEDGVPSRFSGSGSGTHFSLKINSMQPEDTATYFCKQAYDVPRTFGGGTKLEIK
For B1, the binding result in assay [1] and in assay [2] was “binds” in each case.

B2: murine monoclonal antibody mAb272 (antibody, V domains shown)
VH: B1 VH
VL: B1 VL with H70L, S77N
For the molecule B2, the binding entry in assay [1] and in assay [2] was “binds” each time.
